Laboratory results from article PMC13343979.
Results are given in words; binding and its absence hold for the method and conditions named. In cells and extracts the contact can be indirect. Some results given as binding are weak or reduced against the parent protein; the word gives no strength. For part of these data: Where a sequence is shown, tags or fusion partners need not be part of it.

What was measured:
[1] = target: T1, V5-tagged IRF7 (IFN regulatory factor 7) (mouse) (UniProt P70434); assay: co-IP; HEK-3KO.IRF7 cells transfected with polyI:C (pIC/LF) or infected with SeV for the indicated times; lysed in EPPS buffer; V5.IRF7 immunoprecipitated with V5-agarose beads overnight, washed with EPPS and RIPA buffers; immunoblot for endogenous USP2 and OTUD5
T1 sequence: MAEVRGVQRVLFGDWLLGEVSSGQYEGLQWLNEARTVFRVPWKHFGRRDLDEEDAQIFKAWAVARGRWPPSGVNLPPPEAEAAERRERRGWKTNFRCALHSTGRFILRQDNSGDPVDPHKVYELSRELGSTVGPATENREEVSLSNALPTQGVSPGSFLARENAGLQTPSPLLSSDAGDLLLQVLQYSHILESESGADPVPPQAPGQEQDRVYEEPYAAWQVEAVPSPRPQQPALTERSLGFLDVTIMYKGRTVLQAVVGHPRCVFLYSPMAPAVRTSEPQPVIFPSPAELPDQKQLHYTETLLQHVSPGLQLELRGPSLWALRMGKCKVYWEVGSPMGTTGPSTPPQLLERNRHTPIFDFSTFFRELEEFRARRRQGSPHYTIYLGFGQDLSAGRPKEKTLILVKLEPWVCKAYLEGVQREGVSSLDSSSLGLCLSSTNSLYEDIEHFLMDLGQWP

[2] = target: T2, IRF7 (endogenous, primary BMDMs) (mouse (endogenous in BMDMs)) (UniProt P70434); assay: proximity ligation; Duolink PLA in fixed, permeabilised wild-type primary BMDMs, mock or SeV-infected (8 hpi), with anti-IRF7 and anti-USP2 or anti-OTUD5 antibodies
T2 sequence: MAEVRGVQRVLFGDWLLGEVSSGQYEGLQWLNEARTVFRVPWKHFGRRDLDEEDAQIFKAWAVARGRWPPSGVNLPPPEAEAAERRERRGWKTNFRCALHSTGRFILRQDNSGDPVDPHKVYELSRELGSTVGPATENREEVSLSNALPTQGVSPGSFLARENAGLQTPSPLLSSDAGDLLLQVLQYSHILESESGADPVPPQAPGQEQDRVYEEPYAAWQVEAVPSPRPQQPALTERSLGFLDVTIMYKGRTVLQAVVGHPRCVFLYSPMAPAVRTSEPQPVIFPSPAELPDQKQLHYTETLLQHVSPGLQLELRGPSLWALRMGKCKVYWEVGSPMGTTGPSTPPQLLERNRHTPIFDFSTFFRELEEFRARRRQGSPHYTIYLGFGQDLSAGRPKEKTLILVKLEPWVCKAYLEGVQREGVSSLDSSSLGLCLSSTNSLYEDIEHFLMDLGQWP

Row | Binder | binding [1] | binding [2]
1 | OTUD5 (enzyme, UniProt Q96G74 1-571) MTILPKKKPPPPDADPANEPPPPGPMPPAPRRGGGVGVGGGGTGVGGGDRDRDSGVVGARPRASPPPQGPLPGPPGALHRWALAVPPGAVAGPRPQQASPPPCGGPGGPGGGPGDALGAAAAGVGAAGVVVGVGGAVGVGGCCSGPGHSKRRRQAPGVGAVGGGSPEREEVGAGYNSEDEYEAAAARIEAMDPATVEQQEHWFEKALRDKKGFIIKQMKEDGACLFRAVADQVYGDQDMHEVVRKHCMDYLMKNADYFSNYVTEDFTTYINRKRKNNCHGNHIEMQAMAEMYNRPVEVYQYSTGTSAVEPINTFHGIHQNEDEPIRVSYHRNIHYNSVVNPNKATIGVGLGLPSFKPGFAEQSLMKNAIKTSEESWIEQQMLEDKKRATDWEATNEAIEEQVARESYLQWLRDQEKQARQVRGPSQPRKASATCSSATAAASSGLEEWTSRSPRQRSSASSPEHPELHAELGMKPPSPGTVLALAKPPSPCAPGTSSQFSAGADRATSPLVSLYPALECRALIQQMSPSAFGLNDWDDDEILASVLAVSQQEYLDSMKKNKVHRDPPPDKS | binds | 
2 | USP2 (endogenous, primary BMDMs) (enzyme, UniProt O88623 1-619) MSQLSSTLKRYTESSRYTDAPYAKPGYGTYTPSSYGANLAASFLEKEKLGFKPVSPTSFLPRPRTYGPSSILDCDRGRPLLRSDIIGSSKRSESQTRGNERPSGSGLNGGSGFSYGVSSNSLSYLPMNARDQGVTLSQKKSNSQSDLARDFSSLRTSDGYRTSDGYRTSEGFRIDPGNLGRSPMLARTRKELCALQGLYQAASRSEYLTDYLENYGRKGSAPQVLTQAPPPSRVPEVLSPTYRPSGRYTLWEKSKGQASGPSRSSSPGRDTMNSKSAQGLAGLRNLGNTCFMNSILQCLSNTRELRDYCLQRLYMRDLGHTSSAHTALMEEFAKLIQTIWTSSPNDVVSPSEFKTQIQRYAPRFMGYNQQDAQEFLRFLLDGLHNEVNRVAARPKASPETLDHLPDEEKGRQMWRKYLEREDSRIGDLFVGQLKSSLTCTDCGYCSTVFDPFWDLSLPIAKRGYPEVTLMDCMRLFTKEDILDGDEKPTCCRCRARKRCIKKFSVQRFPKILVLHLKRFSESRIRTSKLTTFVNFPLRDLDLREFASENTNHAVYNLYAVSNHSGTTMGGHYTAYCRSPVTGEWHTFNDSSVTPMSSSQVRTSDAYLLFYELASPPSRM |  | binds
3 | OTUD5 (endogenous, primary BMDMs) (enzyme, UniProt Q3U2S4 1-566) MTILPKKKPPPPDADPANEPPPPGPLPPAPRRGAGVGVGGGGTGVGGGERDRDSGVVGARPRASPPPQGPLPGPPGALHRWALAVPPGAVAGPRPQQASPPPCGGPGGPGGGPGDALGATTAGVGAAGVVVGVGGTVGVGGCCSGPGHSKRRRQAPGVGAVGGASPEREEVGAGYNSEDEYEAAAARIEAMDPATVEQQEHWFEKALRDKKGFIIKQMKEDGACLFRAVADQVYGDQDMHEVVRKHCMDYLMKNADYFSNYVTEDFTTYINRKRKNNCHGNHIEMQAMAEMYNRPVEVYQYSTEPINTFHGIHQNEDEPIRVSYHRNIHYNSVVNPNKATIGVGLGLPSFKPGFAEQSLMKNAIKTSEESWIEQQMLEDKKRATDWEATNEAIEEQVARESYLQWLRDQEKQARQVRGPSQPRKASATCSSATAAASSGLEEWTSRSPRQRSSASSPEHPELHAELGIKPPSPGTVLALAKPPSPCAPGTSSQFSAGGDRATSPLVSLYPALECRALIQQMSPSAFGLNDWDDDEILASVLAVSQQEYLDSMKKNKVHREPPPDKS |  | binds
